The target of experiment [1] is EhDrpB-HA (Entamoeba histolytica) (UniProt C4M3R5). Description: co-IP; whole cell lysates (1 mg protein) of EhDrpA-HA and EhDrpB-HA strains; 50 mM Tris-HCl/150 mM NaCl/1% Triton X-100 pH 7.4; Protein G magnetic beads with anti-HA, anti-DrpA or anti-DrpB antibodies overnight at 4 °C; immunoblot. A general note: In western blotting, separated proteins are transferred to a membrane and probed.

The chains behind the UniProt entries cited, without tags or fusion partners. Where a name states a change or a piece, a line headed by the entry shows the natural chain unless it says otherwise.
UniProt C4M3R5: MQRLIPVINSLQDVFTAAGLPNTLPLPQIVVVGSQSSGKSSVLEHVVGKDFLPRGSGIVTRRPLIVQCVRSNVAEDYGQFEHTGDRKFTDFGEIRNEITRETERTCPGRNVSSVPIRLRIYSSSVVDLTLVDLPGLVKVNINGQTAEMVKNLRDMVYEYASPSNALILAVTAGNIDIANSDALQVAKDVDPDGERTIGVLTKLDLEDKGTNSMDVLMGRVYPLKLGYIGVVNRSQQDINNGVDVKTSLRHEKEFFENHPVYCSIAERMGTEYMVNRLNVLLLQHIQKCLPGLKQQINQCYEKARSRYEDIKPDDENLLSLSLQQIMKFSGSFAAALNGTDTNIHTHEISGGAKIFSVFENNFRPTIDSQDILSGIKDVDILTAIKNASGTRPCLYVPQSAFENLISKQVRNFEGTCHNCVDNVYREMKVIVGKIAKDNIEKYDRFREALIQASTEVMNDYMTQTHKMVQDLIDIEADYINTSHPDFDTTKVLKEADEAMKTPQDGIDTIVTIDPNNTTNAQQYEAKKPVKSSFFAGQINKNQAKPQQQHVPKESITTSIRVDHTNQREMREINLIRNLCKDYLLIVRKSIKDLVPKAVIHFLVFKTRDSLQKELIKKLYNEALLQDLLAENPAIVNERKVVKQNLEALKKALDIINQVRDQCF
UniProt C4LX84: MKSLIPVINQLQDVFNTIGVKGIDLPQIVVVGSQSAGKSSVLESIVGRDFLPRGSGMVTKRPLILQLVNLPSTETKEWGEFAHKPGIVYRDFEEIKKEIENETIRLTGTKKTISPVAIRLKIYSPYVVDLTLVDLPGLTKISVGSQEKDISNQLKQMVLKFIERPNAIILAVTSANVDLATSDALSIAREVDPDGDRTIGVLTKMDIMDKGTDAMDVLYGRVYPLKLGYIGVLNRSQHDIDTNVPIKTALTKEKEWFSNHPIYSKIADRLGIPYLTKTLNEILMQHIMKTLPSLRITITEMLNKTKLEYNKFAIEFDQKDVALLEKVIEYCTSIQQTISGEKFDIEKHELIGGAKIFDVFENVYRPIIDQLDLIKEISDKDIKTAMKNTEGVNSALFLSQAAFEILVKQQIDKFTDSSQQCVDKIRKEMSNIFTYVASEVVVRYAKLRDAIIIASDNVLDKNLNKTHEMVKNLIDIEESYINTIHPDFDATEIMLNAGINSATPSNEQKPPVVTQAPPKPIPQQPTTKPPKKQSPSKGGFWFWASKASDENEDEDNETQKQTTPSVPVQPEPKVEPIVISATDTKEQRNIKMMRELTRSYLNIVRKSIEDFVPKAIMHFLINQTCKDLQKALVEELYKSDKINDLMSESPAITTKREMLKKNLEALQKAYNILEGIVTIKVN

Experiment [2] deals with EhDrpA-HA (Entamoeba histolytica) (UniProt C4LX84). The description is as above.
For experiment [3], the target named is EhDrpA (endogenous) (Entamoeba histolytica (endogenous in trophozoites)) (UniProt C4LX84). The experiment in a line: native gel or EMSA; blue native PAGE of whole cell lysates of DrpAgs, DrpBgs and control strains, solubilized by 1% digitonin at 4 °C; immunoblot with anti-DrpA and anti-DrpB antibodies. (A gel shift assay detects complexes by their altered migration in electrophoresis.)

No constants are given. Whether binding was seen depends on the method and setting. A result given as binding can be weak or reduced; the word gives no strength. For part of these data: In cells and extracts the contact can be indirect.

As to “EhDrpA (endogenous) (from UniProt C4LX84)”, the binding entry in experiment [1] was “binds”.

As for “EhDrpB (endogenous) (from UniProt C4M3R5)”, the binding result in experiment [2] and in experiment [3] was “binds” in each case.

The values above are taken from paper PMC5647421, “Hetero-oligomer of dynamin-related proteins participates in the fission of highly divergent mitochondria from Entamoeba histolytica” (Scientific Reports, 2017).
